No constants are given. Whether binding was seen depends on the method and setting. Some results given as binding are weak or reduced against the parent protein; the word gives no strength. For some assays here: Sequences can lack the tags named with a protein.
Key:
[1] = target: Recombinant human TATA binding protein (ab81897, Abcam) (human); assay: native MS; coreMYC pre-incubated with a 10-fold excess of EGCG (30 min, 37 C) before it was added to TBP; ammonium acetate, sample cone 50 V; both purified
[2] = target: Recombinant human TATA binding protein (ab81897, Abcam) (human); assay: condition: only coreMYC pre-incubated with a 10-fold excess of EGCG; native MS; coreMYC pre-incubated with a 10-fold excess of EGCG (30 min, 37 C) before it was added to TBP; ammonium acetate, sample cone 50 V; both purified
[3] = target: MGHis6-coreMYC (c-MYC residues 101-150) (human); assay: native MS; each peptide alone: coreMYC 31 uM, TRRAP peptide 30 uM, 100 mM ammonium acetate pH 7, nESI, positive mode; both purified
[4] = target: TRRAP_(2038-2087) synthetic peptide; assay: condition: only coreMYC pre-incubated with 150 μM EGCG; native MS; coreMYC pre-incubated with EGCG (30 min, 37 C; 150 uM in the results) before TRRAP_(2038-2087) was added; ammonium acetate, sample cone 10 V; both purified
[5] = target: TRRAP_(2038-2087) synthetic peptide; assay: native MS; each peptide alone: coreMYC 31 uM, TRRAP peptide 30 uM, 100 mM ammonium acetate pH 7, nESI, positive mode; both purified

| Binder | binding [1] | binding [2] | binding [3] | binding [4] | binding [5] |
| --- | --- | --- | --- | --- | --- |
| MVTELLGGDMVNQSFICDPDDETFIKNIIIQDCMWSGFSAAAKLVSEKLA [MGHis6-coreMYC (c-MYC residues 101-150)] | binds weakly | no binding | no binding (tested: 31 μM) | no binding |  |
| GVNSVSSSIKRGLSVDSAQEVKRFRTATGAISAVFGRSQSLPGADSLLAK (N-terminal acetyl (Ac-), C-terminal amide (-NH2)) [TRRAP_(2038-2087) synthetic peptide] |  |  |  |  | no binding (tested: 30 μM) |
